Experimental data taken from PMC8400394, “Adsorption of Recombinant Human β-Defensin 2 and Two Mutants on Mesoporous Silica Nanoparticles and Its Effect against Clavibacter michiganensis subsp. michiganensis” (Nanomaterials, 2021).

Assay: Release (desorption) of AMPs from MSN5.4
Conditions: PBS

human β-defensin-2 [hβD2]
concentration released from MSN5.4 at first registered desorption (120 h) (28 ± 2 °C, BCA total protein, 120 h): 2.8 µg/mL
total amount released from MSN5.4 (cumulative release) (28 ± 2 °C, as far as monitored (216 h), loaded with 0.5 mg AMP): approximately 55 µg
time after which release from MSN5.4 begins (total protein quantified for 216 h): > 120 h
